In all, about 1,900 compounds were measured (“excess over highest single agent (ExcessHSA) synergy score, 6x6 matrix”: median about -83, lowest 2% from about -370 on). The list shows a part of the results.
The molecules below were run on NCI-H446 (assay: excess over highest single agent (ExcessHSA) synergy score, 6x6 matrix; higher = less synergy (more negative = stronger synergy)). Settings: 72 h; CellTiter-Glo viability.
With `CC1(COc2ccc3c(c2)ncn3-c2ccc3cccc(N4CCC(N)CC4)c3n2)COC1` + Cc1sc2c(c1C)C(c1ccc(Cl)cc1)=N[C@@H](CC(=O)OC(C)(C)C)c1nnc(C)n1-2 [NCGC00250412-19] the “excess over highest single agent” value was -117.
With `N#CC(=Cc1ccc(O)c(O)c1)C(=O)NCc1ccccc1` + Cc1sc2c(c1C)C(c1ccc(Cl)cc1)=N[C@@H](CC(=O)OC(C)(C)C)c1nnc(C)n1-2 [NCGC00250412-19] the “excess over highest single agent” value was -130.
For `N#CC(=C(/N)Sc1ccccc1N)/C(C#N)=C(/N)Sc1ccccc1N` + Cc1sc2c(c1C)C(c1ccc(Cl)cc1)=N[C@@H](CC(=O)OC(C)(C)C)c1nnc(C)n1-2 [NCGC00250412-19], the “excess over highest single agent” value was -54.6.
`CC(O)(C#Cc1ccc2c(c1)N(c1nc(N)ncc1Cl)CC2)c1nccs1` (stereo not given) + Cc1sc2c(c1C)C(c1ccc(Cl)cc1)=N[C@@H](CC(=O)OC(C)(C)C)c1nnc(C)n1-2 [NCGC00250412-19] was tested, and the “excess over highest single agent” value was 54.
For `CN(C(=O)c1ccc(F)cc1C(F)(F)F)C1CCN(c2nnc(-c3ccnn3C)c3ccccc23)CC1` + Cc1sc2c(c1C)C(c1ccc(Cl)cc1)=N[C@@H](CC(=O)OC(C)(C)C)c1nnc(C)n1-2 [NCGC00250412-19], the “excess over highest single agent” value was -103.
For `COc1cc2c(cc1OC)CN(CCc1ccc(NC(=O)c3cc(OC)c(OC)cc3NC(=O)c3cnc4ccccc4c3)cc1)CC2` + Cc1sc2c(c1C)C(c1ccc(Cl)cc1)=N[C@@H](CC(=O)OC(C)(C)C)c1nnc(C)n1-2 [NCGC00250412-19], the “excess over highest single agent” value was 50.9.
`CS(=O)(=O)c1ccc(C2=C(c3ccccc3)C(=O)OC2)cc1` + Cc1sc2c(c1C)C(c1ccc(Cl)cc1)=N[C@@H](CC(=O)OC(C)(C)C)c1nnc(C)n1-2 [NCGC00250412-19] was tested, and the “excess over highest single agent” value was -19.4.
With `Cc1[nH]c(=O)c(C#N)cc1-c1ccncc1` + Cc1sc2c(c1C)C(c1ccc(Cl)cc1)=N[C@@H](CC(=O)OC(C)(C)C)c1nnc(C)n1-2 [NCGC00250412-19] the “excess over highest single agent” value was 88.7.
With `CCCNC(=O)[C@H]1O[C@@H]1C(=O)N[C@H](C(=O)N1CCC[C@H]1C(=O)OC)[C@@H](C)CC` + Cc1sc2c(c1C)C(c1ccc(Cl)cc1)=N[C@@H](CC(=O)OC(C)(C)C)c1nnc(C)n1-2 [NCGC00250412-19] the “excess over highest single agent” value was -117.
For `CC(C)[C@H](CO)Nc1nc(Nc2cccc(Cl)c2)c2ncn(C(C)C)c2n1` + Cc1sc2c(c1C)C(c1ccc(Cl)cc1)=N[C@@H](CC(=O)OC(C)(C)C)c1nnc(C)n1-2 [NCGC00250412-19], the “excess over highest single agent” value was -111.
In the case of `Cc1ccnc2c1NC(=O)c1cccnc1N2C1CC1` + Cc1sc2c(c1C)C(c1ccc(Cl)cc1)=N[C@@H](CC(=O)OC(C)(C)C)c1nnc(C)n1-2 [NCGC00250412-19], the “excess over highest single agent” value is reported as 12.1.
`C[Se]CCC(N)C(=O)O` (stereo not given) + Cc1sc2c(c1C)C(c1ccc(Cl)cc1)=N[C@@H](CC(=O)OC(C)(C)C)c1nnc(C)n1-2 [NCGC00250412-19] was tested, and the “excess over highest single agent” value was -104.
`CC(C)(C)[C@H](NC(=O)c1ccc(N)c(Cl)c1)C(=O)N1CCC[C@H]1C(=O)N[C@H](C#N)CC(=O)O` + Cc1sc2c(c1C)C(c1ccc(Cl)cc1)=N[C@@H](CC(=O)OC(C)(C)C)c1nnc(C)n1-2 [NCGC00250412-19] was tested, and the “excess over highest single agent” value was 2.17.
With `OCCNC1CCCc2c1[nH]c1ccc(-c3ccccc3)cc21` (stereo not given) + Cc1sc2c(c1C)C(c1ccc(Cl)cc1)=N[C@@H](CC(=O)OC(C)(C)C)c1nnc(C)n1-2 [NCGC00250412-19] the “excess over highest single agent” value was 29.7.
For `CN(C)c1ccc2nc3ccc(=[N+](C)C)cc-3sc2c1` + Cc1sc2c(c1C)C(c1ccc(Cl)cc1)=N[C@@H](CC(=O)OC(C)(C)C)c1nnc(C)n1-2 [NCGC00250412-19], the “excess over highest single agent” value was -82.1.
`CCc1nc(-c2cccc(C)c2)c(-c2ccnc(NC(=O)c3ccccc3)c2)s1` + Cc1sc2c(c1C)C(c1ccc(Cl)cc1)=N[C@@H](CC(=O)OC(C)(C)C)c1nnc(C)n1-2 [NCGC00250412-19] was tested, and the “excess over highest single agent” value was -106.
`CN1C(C(=O)Nc2ccccn2)=C(O)c2sccc2S1(=O)=O` + Cc1sc2c(c1C)C(c1ccc(Cl)cc1)=N[C@@H](CC(=O)OC(C)(C)C)c1nnc(C)n1-2 [NCGC00250412-19] was tested, and the “excess over highest single agent” value was 313.
In the case of `COc1ccc(C[C@@H](C)[C@@H](C)Cc2ccc(OC)c(OC)c2)cc1OC` + Cc1sc2c(c1C)C(c1ccc(Cl)cc1)=N[C@@H](CC(=O)OC(C)(C)C)c1nnc(C)n1-2 [NCGC00250412-19], the “excess over highest single agent” value is reported as -111.
`C=C[C@H]1CN2CC[C@H]1C[C@@H]2[C@@H](O)c1ccnc2ccc(OC)cc12` + Cc1sc2c(c1C)C(c1ccc(Cl)cc1)=N[C@@H](CC(=O)OC(C)(C)C)c1nnc(C)n1-2 [NCGC00250412-19] was tested, and the “excess over highest single agent” value was -219.
For `N[C@@H]1C[C@H]1c1ccccc1.N[C@H]1C[C@@H]1c1ccccc1` + Cc1sc2c(c1C)C(c1ccc(Cl)cc1)=N[C@@H](CC(=O)OC(C)(C)C)c1nnc(C)n1-2 [NCGC00250412-19], the “excess over highest single agent” value was 16.2.
In the case of `CCC1(c2ccc(N)cc2)CCC(=O)NC1=O` (stereo not given) + Cc1sc2c(c1C)C(c1ccc(Cl)cc1)=N[C@@H](CC(=O)OC(C)(C)C)c1nnc(C)n1-2 [NCGC00250412-19], the “excess over highest single agent” value is reported as -82.4.
`NS(=O)(=O)c1cccc2c1C(=O)c1cccc(O)c1C2=O` + Cc1sc2c(c1C)C(c1ccc(Cl)cc1)=N[C@@H](CC(=O)OC(C)(C)C)c1nnc(C)n1-2 [NCGC00250412-19] was tested, and the “excess over highest single agent” value was -234.
`CCCCCCCCCCCCCCCC(=O)O[C@@H]1[C@@H](O)[C@@H](O)[C@@H]([C@H](NC(=O)[C@@H]2C[C@@H](CCC)CN2C)[C@H](C)Cl)O[C@@H]1SC` + Cc1sc2c(c1C)C(c1ccc(Cl)cc1)=N[C@@H](CC(=O)OC(C)(C)C)c1nnc(C)n1-2 [NCGC00250412-19] was tested, and the “excess over highest single agent” value was -179.
In the case of `CCOCC(O)COc1ccc(NC(=O)CC[S+](C)C)cc1` (stereo not given) + Cc1sc2c(c1C)C(c1ccc(Cl)cc1)=N[C@@H](CC(=O)OC(C)(C)C)c1nnc(C)n1-2 [NCGC00250412-19], the “excess over highest single agent” value is reported as 23.8.
In the case of `CCN(C)C(=O)Oc1cccc([C@H](C)N(C)C)c1` + Cc1sc2c(c1C)C(c1ccc(Cl)cc1)=N[C@@H](CC(=O)OC(C)(C)C)c1nnc(C)n1-2 [NCGC00250412-19], the “excess over highest single agent” value is reported as -74.4.
